Source: the supplement of paper PMC12823440, “Inhibitors supercharge kinase turnover through native proteolytic circuits” (Nature, 2025)
Structures can show the parent of a compound that is named as a salt. The list shows a part of the results. The calls rarely recur for the same compound in another form.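 Kinases, fused to nanoluciferase, were expressed in K562 cells; luminescence was measured every 4 h from 2 to 18 h as percent of control (DMSO = 100%, positive control = 0%). A time point is decreased if signal falls significantly (2 sigma). Hits were called by the authors by a rule that is not shown; the count of time points alone does not decide it.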

Protein sequences, listed by entry. Tags and fused reporters are not part of them. Lines headed by an entry give the natural chain unless they say otherwise; changes in a name come on top.
UniProt Q15208: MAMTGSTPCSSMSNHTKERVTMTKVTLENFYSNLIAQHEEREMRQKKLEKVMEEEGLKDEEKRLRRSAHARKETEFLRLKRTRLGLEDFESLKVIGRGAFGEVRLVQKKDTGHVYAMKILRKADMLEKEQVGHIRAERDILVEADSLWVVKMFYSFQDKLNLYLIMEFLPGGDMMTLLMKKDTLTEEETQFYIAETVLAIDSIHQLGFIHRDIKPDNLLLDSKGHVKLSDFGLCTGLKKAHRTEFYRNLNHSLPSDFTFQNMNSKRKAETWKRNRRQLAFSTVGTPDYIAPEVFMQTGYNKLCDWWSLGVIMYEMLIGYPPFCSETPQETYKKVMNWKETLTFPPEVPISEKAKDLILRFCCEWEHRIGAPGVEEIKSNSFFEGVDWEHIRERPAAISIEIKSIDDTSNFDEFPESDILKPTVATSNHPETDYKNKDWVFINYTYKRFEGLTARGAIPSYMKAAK
UniProt P42680: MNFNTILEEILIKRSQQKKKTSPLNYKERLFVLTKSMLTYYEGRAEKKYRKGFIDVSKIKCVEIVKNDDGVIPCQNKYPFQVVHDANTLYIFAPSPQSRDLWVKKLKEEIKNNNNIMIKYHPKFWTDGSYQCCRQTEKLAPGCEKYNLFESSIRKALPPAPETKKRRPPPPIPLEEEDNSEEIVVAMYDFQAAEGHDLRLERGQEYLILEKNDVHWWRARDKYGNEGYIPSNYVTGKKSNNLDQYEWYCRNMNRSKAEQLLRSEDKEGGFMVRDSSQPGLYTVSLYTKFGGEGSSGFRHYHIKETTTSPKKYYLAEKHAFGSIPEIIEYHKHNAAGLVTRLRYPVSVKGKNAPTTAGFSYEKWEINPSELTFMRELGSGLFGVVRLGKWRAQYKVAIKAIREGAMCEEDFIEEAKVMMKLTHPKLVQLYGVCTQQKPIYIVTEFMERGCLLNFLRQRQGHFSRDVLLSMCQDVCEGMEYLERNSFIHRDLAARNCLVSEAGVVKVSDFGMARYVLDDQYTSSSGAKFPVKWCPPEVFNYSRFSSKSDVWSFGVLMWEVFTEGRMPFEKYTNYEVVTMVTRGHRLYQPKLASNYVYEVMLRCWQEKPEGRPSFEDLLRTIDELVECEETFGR
UniProt P29597: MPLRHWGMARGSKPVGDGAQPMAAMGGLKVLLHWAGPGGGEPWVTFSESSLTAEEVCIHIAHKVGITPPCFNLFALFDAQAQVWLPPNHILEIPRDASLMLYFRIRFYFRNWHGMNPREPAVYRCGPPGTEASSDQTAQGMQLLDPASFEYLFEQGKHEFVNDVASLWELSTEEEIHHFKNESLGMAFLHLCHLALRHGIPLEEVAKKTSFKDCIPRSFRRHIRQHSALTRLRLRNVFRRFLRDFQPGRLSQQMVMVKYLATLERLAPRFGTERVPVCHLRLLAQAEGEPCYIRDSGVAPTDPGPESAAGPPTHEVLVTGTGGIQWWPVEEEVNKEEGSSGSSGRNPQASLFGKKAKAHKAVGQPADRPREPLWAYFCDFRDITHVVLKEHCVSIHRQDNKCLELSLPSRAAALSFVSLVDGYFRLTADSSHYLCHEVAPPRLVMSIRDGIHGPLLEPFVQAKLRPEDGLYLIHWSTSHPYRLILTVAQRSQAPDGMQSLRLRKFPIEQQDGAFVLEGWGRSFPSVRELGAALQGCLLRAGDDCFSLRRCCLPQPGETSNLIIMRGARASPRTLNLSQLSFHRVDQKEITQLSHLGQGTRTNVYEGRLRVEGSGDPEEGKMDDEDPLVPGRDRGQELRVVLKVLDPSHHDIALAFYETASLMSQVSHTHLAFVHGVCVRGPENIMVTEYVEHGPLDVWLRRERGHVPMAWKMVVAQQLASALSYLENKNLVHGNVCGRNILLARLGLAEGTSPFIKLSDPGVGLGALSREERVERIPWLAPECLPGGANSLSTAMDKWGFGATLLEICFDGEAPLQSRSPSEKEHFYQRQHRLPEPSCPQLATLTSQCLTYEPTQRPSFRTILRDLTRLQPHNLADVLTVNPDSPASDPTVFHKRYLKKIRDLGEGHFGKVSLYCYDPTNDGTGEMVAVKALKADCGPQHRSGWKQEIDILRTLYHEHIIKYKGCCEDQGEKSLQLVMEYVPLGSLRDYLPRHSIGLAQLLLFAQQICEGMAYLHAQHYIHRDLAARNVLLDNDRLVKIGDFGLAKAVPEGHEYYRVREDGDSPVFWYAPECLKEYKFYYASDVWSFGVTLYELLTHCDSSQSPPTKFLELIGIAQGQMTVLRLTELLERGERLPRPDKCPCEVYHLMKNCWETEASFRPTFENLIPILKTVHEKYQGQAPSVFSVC
UniProt Q6PHR2: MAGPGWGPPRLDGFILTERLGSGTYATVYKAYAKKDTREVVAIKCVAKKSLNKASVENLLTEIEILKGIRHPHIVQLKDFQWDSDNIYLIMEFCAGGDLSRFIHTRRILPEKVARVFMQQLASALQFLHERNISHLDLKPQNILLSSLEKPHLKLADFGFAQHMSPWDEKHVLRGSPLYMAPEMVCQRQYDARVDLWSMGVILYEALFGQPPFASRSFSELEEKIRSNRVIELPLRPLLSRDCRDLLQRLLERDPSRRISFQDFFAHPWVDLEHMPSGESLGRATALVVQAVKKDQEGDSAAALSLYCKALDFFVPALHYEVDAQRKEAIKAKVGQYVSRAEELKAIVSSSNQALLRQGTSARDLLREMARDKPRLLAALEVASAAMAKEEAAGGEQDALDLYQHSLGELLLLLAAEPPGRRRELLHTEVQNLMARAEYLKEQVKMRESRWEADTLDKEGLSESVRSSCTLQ
UniProt P07947, whole entry, looked up: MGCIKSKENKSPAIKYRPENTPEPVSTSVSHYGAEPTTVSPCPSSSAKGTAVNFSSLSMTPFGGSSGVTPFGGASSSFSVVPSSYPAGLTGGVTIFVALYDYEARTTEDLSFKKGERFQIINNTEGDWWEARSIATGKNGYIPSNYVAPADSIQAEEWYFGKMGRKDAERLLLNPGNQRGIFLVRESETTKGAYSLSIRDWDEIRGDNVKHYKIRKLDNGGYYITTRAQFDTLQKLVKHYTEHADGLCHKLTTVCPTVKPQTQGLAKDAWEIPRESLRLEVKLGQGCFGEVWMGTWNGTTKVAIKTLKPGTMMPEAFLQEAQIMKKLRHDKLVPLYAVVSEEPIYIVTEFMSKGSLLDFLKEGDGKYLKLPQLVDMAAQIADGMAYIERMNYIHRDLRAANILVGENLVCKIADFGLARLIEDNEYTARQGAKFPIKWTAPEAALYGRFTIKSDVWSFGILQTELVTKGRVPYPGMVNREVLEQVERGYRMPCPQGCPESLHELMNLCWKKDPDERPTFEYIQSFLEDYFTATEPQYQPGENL
UniProt P43403: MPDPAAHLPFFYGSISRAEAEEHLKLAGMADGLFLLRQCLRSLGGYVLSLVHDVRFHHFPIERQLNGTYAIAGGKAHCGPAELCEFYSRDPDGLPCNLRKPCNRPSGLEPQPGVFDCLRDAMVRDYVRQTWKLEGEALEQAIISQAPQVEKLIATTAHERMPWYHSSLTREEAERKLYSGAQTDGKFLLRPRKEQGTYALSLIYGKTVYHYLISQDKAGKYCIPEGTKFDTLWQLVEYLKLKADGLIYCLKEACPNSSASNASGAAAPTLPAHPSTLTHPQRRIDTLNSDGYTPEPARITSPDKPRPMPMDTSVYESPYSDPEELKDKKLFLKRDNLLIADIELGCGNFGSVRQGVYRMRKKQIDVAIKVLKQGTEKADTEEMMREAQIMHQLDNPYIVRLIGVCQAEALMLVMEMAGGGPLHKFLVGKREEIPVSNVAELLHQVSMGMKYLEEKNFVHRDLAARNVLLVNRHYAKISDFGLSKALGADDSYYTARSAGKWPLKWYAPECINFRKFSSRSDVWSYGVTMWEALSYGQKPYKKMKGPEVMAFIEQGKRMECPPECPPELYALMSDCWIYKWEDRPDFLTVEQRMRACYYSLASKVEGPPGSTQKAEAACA
UniProt P00519, whole entry: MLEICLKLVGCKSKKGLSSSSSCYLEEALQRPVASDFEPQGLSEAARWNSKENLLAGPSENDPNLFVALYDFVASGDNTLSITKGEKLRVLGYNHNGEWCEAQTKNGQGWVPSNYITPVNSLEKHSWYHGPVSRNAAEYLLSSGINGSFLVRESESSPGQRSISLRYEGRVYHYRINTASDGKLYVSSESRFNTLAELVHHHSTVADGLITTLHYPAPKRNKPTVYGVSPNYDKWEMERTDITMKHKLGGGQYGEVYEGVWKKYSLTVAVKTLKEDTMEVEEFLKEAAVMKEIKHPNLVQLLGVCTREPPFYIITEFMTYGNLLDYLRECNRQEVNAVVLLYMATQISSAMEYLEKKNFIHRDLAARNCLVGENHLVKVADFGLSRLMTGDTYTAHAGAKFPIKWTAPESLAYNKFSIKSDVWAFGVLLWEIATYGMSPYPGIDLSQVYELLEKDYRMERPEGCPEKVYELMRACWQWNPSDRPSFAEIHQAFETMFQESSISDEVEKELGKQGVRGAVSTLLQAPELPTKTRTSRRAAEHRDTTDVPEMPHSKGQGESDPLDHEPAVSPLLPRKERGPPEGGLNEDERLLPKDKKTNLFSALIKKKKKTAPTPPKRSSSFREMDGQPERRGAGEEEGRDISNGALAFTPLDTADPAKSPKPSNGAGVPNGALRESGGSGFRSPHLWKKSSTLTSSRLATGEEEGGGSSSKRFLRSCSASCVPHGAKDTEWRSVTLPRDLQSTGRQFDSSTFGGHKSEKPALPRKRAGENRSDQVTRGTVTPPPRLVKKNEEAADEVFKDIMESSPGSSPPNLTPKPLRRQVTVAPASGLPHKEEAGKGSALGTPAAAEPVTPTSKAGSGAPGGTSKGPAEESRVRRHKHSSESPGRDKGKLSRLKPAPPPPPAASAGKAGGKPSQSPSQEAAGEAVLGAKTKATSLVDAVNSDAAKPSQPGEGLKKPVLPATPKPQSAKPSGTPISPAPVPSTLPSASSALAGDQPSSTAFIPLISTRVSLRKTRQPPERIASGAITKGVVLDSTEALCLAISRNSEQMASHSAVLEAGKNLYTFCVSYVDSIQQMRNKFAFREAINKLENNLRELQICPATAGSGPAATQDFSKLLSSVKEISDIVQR
UniProt P31749: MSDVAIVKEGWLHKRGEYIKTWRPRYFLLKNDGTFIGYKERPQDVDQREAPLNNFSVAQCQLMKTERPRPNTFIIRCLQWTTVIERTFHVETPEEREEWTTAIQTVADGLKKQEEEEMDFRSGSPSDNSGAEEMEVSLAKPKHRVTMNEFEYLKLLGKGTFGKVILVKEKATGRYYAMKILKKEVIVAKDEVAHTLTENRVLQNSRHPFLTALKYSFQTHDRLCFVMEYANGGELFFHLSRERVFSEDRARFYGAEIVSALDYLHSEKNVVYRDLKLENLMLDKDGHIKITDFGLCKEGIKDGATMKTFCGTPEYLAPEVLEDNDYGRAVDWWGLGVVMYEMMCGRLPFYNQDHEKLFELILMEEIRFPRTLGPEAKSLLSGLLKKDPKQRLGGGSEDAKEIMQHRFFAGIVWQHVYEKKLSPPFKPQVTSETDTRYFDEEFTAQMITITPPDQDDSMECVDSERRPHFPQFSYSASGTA

Experiments:
Conditions in all cases: K562; 2-18 h
STK38 = STK38 (UniProt Q15208); assay: kinase-Nluc reporter destabilization hit call (1 = scored as downregulated) (binary); higher = compound decreases kinase abundance
SYK = SYK (UniProt P43405); assay: as above
TEC = TEC (UniProt P42680); assay: as above
TYK2 = TYK2 (UniProt P29597); assay: as above
ULK3 = ULK3 (UniProt Q6PHR2); assay: as above
YES1 = YES1 (UniProt P07947); assay: as above
ZAK = ZAK (UniProt Q9NYL2); assay: as above
ZAP70 = ZAP70 (UniProt P43403); assay: as above
ABL1 = ABL1 (UniProt P00519); assay: number of time points (of 5) at which kinase-Nluc abundance scored as decreased, DMSO-normalised (count); higher = more persistent destabilization
AKT1 = AKT1 (UniProt P31749); assay: as above

Structure (SMILES)	kinase-Nluc reporter destabilization hit call (STK38)	kinase-Nluc reporter destabilization hit call (SYK)	kinase-Nluc reporter destabilization hit call (TEC)	kinase-Nluc reporter destabilization hit call (TYK2)	kinase-Nluc reporter destabilization hit call (ULK3)	kinase-Nluc reporter destabilization hit call (YES1)	kinase-Nluc reporter destabilization hit call (ZAK)	kinase-Nluc reporter destabilization hit call (ZAP70)	number of time points (ABL1)	number of time points (AKT1)
C[C@H]1CC[C@]2(NC1)O[C@H]1C[C@H]3[C@@H]4CC[C@H]5C[C@@H](O)CC[C@]5(C)[C@H]4CC[C@]3(C)[C@H]1[C@@H]2C [Tomatidine] (2 µM)	inactive: 0	inactive: 0	inactive: 0	inactive: 0	inactive: 0	inactive: 0	inactive: 0	inactive: 0	0	0
COc1ccc2c(c1)[nH]c1c(C)nccc12 [Harmine] (10 µM)	inactive: 0	inactive: 0	inactive: 0	inactive: 0	inactive: 0	inactive: 0	inactive: 0	inactive: 0	0	0
CC(=O)Oc1ccc(/C=C/c2cc(OC(C)=O)cc(OC(C)=O)c2)cc1 [Triacetylresveratrol] (10 µM)	inactive: 0	inactive: 0	inactive: 0	inactive: 0	inactive: 0	inactive: 0	inactive: 0	inactive: 0	0	0
CC(=O)O[C@H]1[C@H]2[C@@H](OC(=O)Cc3ccccc3)[C@@H](C)C[C@]2(OC(C)=O)C(=O)/C(C)=C/[C@@H]2[C@H](CC[C@@]13CO3)C2(C)C [Euphorbiasteroid] (10 µM)	inactive: 0	inactive: 0	inactive: 0	inactive: 0	inactive: 0	inactive: 0	inactive: 0	inactive: 0	0	0
COc1ccc2c(c[n+](C)c3c4cc5c(cc4ccc23)OCO5)c1OC [Chelerythrine (chloride)] (10 µM)	inactive: 0	inactive: 0	inactive: 0	inactive: 0	inactive: 0	inactive: 0	inactive: 0	inactive: 0	0	0
CC(=O)OC(C)(C)/C=C/C(=O)[C@](C)(O)[C@H]1[C@H](O)C[C@@]2(C)[C@@H]3CC=C4[C@@H](C=C(O)C(=O)C4(C)C)[C@]3(C)C(=O)C[C@]12C [Cucurbitacin E] (2.5 µM)	inactive: 0	inactive: 0	inactive: 0	inactive: 0	inactive: 0	inactive: 0	inactive: 0	inactive: 0	5	0
CC1=C[C@]23C(=O)[C@@H](C=C(CO)[C@@H](O)[C@]2(O)[C@H]1O)[C@H]1[C@@H](C[C@H]3C)C1(C)C [Ingenol] (10 µM)	inactive: 0	inactive: 0	inactive: 0	inactive: 0	inactive: 0	inactive: 0	inactive: 0	inactive: 0	0	0
COC[C@H]1OC(=O)c2coc3c2[C@@]1(C)C1=C(C3=O)[C@@H]2CCC(=O)[C@@]2(C)C[C@H]1OC(C)=O [Wortmannin] (2.5 µM)	inactive: 0	inactive: 0	inactive: 0	inactive: 0	inactive: 0	inactive: 0	inactive: 0	inactive: 0	4	0
COc1cc2c(cc1F)C(c1ccccc1Cl)=Nc1c(n[nH]c1C)N2 (0.5 µM)	inactive: 0	inactive: 0	inactive: 0	inactive: 0	inactive: 0	inactive: 0	inactive: 0	inactive: 0	0	0
C[C@H]1CC[C@]2(NC1)O[C@H]1C[C@H]3[C@@H]4CC[C@H]5C[C@@H](O)CC[C@]5(C)[C@H]4CC[C@]3(C)[C@H]1[C@@H]2C [Tomatidine (hydrochloride)] (10 µM)	inactive: 0	inactive: 0	inactive: 0	inactive: 0	inactive: 0	inactive: 0	inactive: 0	inactive: 0	0	0
Cn1cc(C2=C(c3cn(C4CCN(Cc5ccccn5)CC4)c4ccccc34)C(=O)NC2=O)c2ccccc21 [Enzastaurin] (10 µM)	inactive: 0	inactive: 0	inactive: 0	inactive: 0	inactive: 0	inactive: 0	inactive: 0	inactive: 0	0	0
O=C(/C=C/c1ccccc1)OC[C@H]1O[C@@H](O[C@@H]2OC=C[C@H]3[C@H](O)[C@@H]4O[C@]4(CO)[C@@H]23)[C@H](O)[C@@H](O)[C@@H]1O [Picroside I] (10 µM)	inactive: 0	inactive: 0	inactive: 0	inactive: 0	inactive: 0	inactive: 0	inactive: 0	inactive: 0	0	0
CC1C(=O)OC2C(O)C34C5OC(=O)C3(OC3OC(=O)C(O)C34C(C(C)(C)C)C5O)C12O (stereo not given) [Ginkgolide C] (10 µM)	inactive: 0	inactive: 0	inactive: 0	inactive: 0	inactive: 0	inactive: 0	inactive: 0	inactive: 0	0	0
NCCc1cn(S(=O)(=O)c2c(Cl)nc3sccn23)c2ccccc12 (10 µM)	inactive: 0	inactive: 0	inactive: 0	inactive: 0	inactive: 0	inactive: 0	inactive: 0	inactive: 0	0	0
COc1ccc(/C=C/c2cc(OC)c(OC)c(OC)c2)cc1 (2.5 µM)	inactive: 0	inactive: 0	inactive: 0	inactive: 0	inactive: 0	inactive: 0	inactive: 0	inactive: 0	4	0
